These are yes or no findings as the source states them, for the method shown. Binding seen in cells or lysates may run through a third protein. Binding can be weak; no strength is given.
Target: bone morphogenetic protein-2 (BMP-2) (human (endogenous in PDLSCs)) (UniProt P12643)
Experiment: co-IP; endogenous co-IP from PDLSC lysate (cell lysis buffer for Western and IP); protein A + G agarose with anti-CTGF antibody, anti-BMP2 antibody or rabbit control IgG, overnight at 4°C; washed 3 times with lysis buffer; Western blot

By UniProt entry, the sequences of proteins in these tests, tags left out. Where a name states a change or a piece, a line headed by the entry shows the natural chain unless it says otherwise. Residues count along the entry.
UniProt P12643: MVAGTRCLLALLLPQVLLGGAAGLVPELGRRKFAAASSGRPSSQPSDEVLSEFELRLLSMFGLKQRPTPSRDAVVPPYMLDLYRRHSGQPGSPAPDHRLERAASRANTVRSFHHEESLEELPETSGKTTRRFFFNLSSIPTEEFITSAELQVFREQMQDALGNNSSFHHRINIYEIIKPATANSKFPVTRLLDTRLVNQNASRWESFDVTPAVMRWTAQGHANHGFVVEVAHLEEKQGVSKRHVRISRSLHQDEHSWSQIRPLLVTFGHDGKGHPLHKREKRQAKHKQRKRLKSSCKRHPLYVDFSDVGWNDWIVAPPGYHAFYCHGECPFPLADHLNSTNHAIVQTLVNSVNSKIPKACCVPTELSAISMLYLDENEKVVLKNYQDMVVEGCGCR
UniProt P29279, residues 27-349: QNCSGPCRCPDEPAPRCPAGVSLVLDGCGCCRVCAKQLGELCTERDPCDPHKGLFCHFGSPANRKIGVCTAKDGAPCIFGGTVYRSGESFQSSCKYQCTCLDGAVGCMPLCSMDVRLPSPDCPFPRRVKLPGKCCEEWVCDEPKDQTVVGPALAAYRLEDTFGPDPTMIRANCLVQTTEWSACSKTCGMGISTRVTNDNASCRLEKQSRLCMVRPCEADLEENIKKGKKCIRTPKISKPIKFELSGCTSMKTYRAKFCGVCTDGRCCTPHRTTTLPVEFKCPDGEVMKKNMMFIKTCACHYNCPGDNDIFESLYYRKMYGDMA

connective tissue growth factor 2 (CTGF) (from UniProt P29279 27-349)
binding: binds

Reference: PMC9499771
